This is an account of results in the supplement of paper PMC11732987, “Enantioselective OTUD7B fragment discovery through chemoproteomics screening and high-throughput optimisation” (Communications Chemistry, 2025).

Protein sequences, listed by entry. Tags and fused reporters are not part of them. Lines headed by an entry give the natural chain unless they say otherwise; changes in a name come on top. Residues count along the entry.
UniProt Q9H7C9: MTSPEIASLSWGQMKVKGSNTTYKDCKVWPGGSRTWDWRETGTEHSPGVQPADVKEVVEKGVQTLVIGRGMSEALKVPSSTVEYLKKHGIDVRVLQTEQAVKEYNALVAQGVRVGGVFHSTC
UniProt O95870: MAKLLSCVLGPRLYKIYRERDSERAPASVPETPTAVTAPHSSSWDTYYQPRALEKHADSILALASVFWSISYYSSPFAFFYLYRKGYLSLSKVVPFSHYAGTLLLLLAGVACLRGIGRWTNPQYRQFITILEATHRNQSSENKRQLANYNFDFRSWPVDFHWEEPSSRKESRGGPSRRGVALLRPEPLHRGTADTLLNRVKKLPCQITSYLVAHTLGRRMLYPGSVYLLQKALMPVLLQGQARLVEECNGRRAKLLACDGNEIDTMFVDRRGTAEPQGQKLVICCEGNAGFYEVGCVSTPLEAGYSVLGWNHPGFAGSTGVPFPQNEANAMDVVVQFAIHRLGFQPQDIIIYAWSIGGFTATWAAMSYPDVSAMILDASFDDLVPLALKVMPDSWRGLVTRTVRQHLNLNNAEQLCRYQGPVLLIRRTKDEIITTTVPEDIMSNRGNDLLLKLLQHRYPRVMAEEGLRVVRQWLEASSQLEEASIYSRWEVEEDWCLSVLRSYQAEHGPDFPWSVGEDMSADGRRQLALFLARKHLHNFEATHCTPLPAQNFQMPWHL
UniProt Q9BV23: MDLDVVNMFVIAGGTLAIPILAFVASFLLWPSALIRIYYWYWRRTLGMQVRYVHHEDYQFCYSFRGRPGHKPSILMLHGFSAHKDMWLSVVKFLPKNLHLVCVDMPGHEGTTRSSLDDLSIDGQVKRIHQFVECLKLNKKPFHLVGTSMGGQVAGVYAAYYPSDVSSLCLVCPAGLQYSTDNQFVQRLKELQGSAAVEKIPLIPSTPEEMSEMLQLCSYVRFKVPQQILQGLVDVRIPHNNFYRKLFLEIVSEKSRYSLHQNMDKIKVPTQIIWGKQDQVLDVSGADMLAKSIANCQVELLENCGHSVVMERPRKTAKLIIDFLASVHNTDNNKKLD
UniProt Q5T3U5: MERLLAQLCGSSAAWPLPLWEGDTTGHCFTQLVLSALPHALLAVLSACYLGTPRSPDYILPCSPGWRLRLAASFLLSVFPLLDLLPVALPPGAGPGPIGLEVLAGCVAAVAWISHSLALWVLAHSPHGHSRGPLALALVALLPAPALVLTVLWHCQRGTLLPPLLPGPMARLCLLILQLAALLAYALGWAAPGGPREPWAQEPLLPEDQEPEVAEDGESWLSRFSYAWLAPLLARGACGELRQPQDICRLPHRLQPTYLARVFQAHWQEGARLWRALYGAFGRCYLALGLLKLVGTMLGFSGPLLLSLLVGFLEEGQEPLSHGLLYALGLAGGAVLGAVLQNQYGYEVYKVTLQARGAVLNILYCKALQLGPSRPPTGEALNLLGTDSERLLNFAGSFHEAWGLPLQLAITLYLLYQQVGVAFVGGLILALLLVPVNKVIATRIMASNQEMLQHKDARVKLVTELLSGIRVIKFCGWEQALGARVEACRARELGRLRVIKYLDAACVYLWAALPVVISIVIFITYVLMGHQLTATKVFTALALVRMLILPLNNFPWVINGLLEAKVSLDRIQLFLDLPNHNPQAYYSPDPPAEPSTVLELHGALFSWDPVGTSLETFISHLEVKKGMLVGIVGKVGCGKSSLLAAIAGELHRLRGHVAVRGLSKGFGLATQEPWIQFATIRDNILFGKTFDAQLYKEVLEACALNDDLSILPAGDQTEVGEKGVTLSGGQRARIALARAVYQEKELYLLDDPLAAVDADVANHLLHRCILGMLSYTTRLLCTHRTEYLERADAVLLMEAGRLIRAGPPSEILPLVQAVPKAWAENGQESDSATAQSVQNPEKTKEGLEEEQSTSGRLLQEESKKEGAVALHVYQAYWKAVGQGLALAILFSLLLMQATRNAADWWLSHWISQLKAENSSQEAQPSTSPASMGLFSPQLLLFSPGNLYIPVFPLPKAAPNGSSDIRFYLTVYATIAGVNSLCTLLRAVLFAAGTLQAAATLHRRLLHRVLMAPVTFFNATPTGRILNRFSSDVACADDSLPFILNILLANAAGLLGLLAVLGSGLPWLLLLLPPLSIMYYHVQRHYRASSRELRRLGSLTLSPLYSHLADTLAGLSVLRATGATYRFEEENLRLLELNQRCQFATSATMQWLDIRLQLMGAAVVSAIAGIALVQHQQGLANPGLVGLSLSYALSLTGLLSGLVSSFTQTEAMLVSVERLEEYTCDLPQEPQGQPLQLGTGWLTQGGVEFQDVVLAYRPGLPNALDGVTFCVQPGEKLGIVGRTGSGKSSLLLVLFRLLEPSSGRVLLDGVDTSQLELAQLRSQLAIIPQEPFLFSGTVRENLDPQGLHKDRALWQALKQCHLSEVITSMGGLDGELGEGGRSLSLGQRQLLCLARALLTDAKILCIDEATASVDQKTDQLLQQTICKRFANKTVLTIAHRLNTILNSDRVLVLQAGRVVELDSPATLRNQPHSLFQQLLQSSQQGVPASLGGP
UniProt Q9UG63: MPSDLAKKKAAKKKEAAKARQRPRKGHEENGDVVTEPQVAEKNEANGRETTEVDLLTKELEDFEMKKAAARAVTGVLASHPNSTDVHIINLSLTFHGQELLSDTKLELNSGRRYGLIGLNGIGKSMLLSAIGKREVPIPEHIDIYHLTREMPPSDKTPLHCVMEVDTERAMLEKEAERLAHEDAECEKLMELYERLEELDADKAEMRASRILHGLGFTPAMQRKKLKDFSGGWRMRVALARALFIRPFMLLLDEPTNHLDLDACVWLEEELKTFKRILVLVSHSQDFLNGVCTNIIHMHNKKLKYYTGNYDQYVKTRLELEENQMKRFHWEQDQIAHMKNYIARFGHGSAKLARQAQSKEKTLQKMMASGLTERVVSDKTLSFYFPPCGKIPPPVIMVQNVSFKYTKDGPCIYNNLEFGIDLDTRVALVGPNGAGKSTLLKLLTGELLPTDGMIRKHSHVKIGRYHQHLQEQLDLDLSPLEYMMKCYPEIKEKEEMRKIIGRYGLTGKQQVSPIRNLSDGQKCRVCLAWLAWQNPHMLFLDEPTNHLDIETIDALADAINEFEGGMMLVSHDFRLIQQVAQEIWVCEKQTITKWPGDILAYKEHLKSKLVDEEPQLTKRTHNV
UniProt Q5JTZ9, 902-922: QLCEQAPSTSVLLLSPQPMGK
UniProt P33897: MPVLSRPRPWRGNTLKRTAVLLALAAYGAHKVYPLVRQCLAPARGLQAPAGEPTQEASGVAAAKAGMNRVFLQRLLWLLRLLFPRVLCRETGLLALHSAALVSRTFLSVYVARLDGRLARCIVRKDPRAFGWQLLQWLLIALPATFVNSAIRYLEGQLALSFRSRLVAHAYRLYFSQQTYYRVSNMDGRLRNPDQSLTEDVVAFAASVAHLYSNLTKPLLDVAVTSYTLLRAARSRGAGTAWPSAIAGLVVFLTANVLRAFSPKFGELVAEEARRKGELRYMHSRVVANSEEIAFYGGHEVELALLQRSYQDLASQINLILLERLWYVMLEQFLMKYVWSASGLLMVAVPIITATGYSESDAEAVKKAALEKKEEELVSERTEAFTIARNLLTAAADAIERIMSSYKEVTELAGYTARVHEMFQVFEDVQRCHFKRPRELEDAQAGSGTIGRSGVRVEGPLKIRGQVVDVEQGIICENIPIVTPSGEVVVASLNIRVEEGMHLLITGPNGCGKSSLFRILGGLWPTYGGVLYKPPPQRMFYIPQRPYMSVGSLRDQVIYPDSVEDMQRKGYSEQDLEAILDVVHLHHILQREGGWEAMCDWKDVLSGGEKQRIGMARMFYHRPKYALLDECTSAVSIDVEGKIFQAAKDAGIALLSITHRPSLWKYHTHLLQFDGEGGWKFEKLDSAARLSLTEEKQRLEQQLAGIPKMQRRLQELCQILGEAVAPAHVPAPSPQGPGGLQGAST
UniProt Q15057: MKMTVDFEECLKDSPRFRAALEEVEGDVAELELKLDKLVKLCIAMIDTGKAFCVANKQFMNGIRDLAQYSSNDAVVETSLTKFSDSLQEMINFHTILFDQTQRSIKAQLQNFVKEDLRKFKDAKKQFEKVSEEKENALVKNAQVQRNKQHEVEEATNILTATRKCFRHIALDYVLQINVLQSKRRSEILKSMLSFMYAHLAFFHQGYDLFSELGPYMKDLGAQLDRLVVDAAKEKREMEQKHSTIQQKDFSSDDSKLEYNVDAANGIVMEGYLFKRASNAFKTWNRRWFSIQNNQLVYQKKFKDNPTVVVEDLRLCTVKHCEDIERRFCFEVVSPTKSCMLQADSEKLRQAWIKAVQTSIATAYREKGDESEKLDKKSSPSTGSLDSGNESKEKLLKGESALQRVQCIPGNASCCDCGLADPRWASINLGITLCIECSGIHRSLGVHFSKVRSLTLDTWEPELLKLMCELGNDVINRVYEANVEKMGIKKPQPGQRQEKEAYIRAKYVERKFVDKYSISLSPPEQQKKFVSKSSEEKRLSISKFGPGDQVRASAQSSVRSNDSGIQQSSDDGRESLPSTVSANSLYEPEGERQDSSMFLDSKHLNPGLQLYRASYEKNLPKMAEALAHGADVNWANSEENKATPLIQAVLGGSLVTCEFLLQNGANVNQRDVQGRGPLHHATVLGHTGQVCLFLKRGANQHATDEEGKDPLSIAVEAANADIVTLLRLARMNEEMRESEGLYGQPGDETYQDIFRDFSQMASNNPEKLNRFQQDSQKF
UniProt P16219, 149-171: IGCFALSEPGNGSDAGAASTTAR
UniProt P42684, whole entry, looked up: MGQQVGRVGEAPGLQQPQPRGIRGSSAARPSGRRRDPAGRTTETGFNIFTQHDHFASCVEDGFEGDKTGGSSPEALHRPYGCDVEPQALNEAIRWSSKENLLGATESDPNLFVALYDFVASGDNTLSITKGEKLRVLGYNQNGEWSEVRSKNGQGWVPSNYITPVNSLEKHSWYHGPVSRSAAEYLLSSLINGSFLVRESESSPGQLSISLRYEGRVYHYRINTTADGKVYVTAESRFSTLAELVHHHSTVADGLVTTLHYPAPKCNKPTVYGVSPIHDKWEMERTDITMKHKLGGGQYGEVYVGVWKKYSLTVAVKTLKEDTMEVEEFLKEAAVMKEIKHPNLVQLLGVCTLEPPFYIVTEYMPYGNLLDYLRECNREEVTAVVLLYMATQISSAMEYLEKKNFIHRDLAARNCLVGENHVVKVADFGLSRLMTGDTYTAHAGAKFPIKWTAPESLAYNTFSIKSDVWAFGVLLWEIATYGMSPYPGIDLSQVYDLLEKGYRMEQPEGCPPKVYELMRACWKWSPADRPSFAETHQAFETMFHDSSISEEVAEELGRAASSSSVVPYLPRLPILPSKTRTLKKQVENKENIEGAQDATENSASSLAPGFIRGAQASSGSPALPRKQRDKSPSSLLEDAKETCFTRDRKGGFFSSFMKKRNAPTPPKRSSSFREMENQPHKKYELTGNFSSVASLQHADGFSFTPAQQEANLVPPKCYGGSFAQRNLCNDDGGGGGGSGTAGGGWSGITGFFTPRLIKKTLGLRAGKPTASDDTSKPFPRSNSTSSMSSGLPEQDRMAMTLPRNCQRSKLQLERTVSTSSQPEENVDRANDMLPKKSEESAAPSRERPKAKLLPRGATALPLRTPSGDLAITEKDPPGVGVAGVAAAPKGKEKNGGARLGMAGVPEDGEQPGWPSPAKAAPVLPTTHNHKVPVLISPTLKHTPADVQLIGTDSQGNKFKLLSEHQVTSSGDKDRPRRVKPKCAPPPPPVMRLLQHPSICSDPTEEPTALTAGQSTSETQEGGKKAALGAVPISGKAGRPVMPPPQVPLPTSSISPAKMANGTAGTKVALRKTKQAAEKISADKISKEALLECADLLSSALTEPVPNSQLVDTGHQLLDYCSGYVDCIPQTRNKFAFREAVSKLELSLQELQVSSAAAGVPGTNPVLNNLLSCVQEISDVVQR

The other results are listed elsewhere or left out. The data scatter; read single values as rough.

Compound in the first assay: ClCC(=O)N[C@H]1CCCc2ccccc12
The assay is described as follows: log2 mean competition ratio of IA-DTB cysteine labelling (DMSO/compound) (log2 ratio); higher = stronger cysteine engagement by compound. Particulars: 50 µM; treatment time: 4 h; cell line lysate: HEK293T. Here is the method:
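IA-DTB competitive cysteine chemoproteomics in HEK293T RIPA lysate. Lysates were treated with compound 29 or 30 at 50 or 200 µM for 4 h, then IA-DTB (500 µM, 1 h), trypsin-digested, NeutrAvidin-enriched and analysed by diaPASEF. Competition ratio = intensity DMSO / intensity compound (n=4 treated, n=64 DMSO); binding: mean log2 CR ≥ 1 and p ≤ 0.05 plus QC filters. Target is the cysteine site.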
With ACACA C407 (UniProt Q13085), the “log2 mean competition ratio” value was found to be 0.0263.

Regarding AASS C534, the “log2 mean competition ratio” value is 0.034.

With AAMDC C122 (UniProt Q9H7C9), the “log2 mean competition ratio” value was found to be 0.105.

Regarding AAK1 C319, the “log2 mean competition ratio” value is -0.0663.

Regarding ABHD16A C416 (UniProt O95870), the “log2 mean competition ratio” value was -0.144.

On to ABHD6 C102 (UniProt Q9BV23), for which the “log2 mean competition ratio” value was -0.794.

As to ABCC10 C1425 (UniProt Q5T3U5), the “log2 mean competition ratio” value was -0.258.

Consider ABCF2 C586 (UniProt Q9UG63), for which the “log2 mean competition ratio” value is -0.0326.

On to AARS2 C904 (UniProt Q5JTZ9), for which the “log2 mean competition ratio” value is -0.113.

On to ABCD1 C511 (UniProt P33897), for which the “log2 mean competition ratio” value was -0.192.

Turning to ABCC1 C1479 (UniProt P33527), the “log2 mean competition ratio” value is -0.401.

Consider ACACA C1396 (UniProt Q13085), for which the “log2 mean competition ratio” value is -0.465.

Consider ABCF1 C655, for which the “log2 mean competition ratio” value was -0.268.

In the case of ACAP2 C10 (UniProt Q15057), the “log2 mean competition ratio” value was -0.482.

For ACADS C151 (UniProt P16219), the “log2 mean competition ratio” value is 0.56.

For the target AAK1 C87, the “log2 mean competition ratio” value was -0.367.

For the target ACACA C1297 (UniProt Q13085), the “log2 mean competition ratio” value was -0.47.

As to ABL2 C510 (UniProt P42684), the “log2 mean competition ratio” value is -0.346.

ABCD1 C39 (UniProt P33897): the “log2 mean competition ratio” value turned out to be 0.0134.

Turning to ABR C346 (UniProt Q12979), the “log2 mean competition ratio” value stood at 0.0313.

The same assay, now with this note: 200 µM; treatment time: 4 h; cell line lysate: HEK293T.
For the target ACACA C407 (UniProt Q13085), the “log2 mean competition ratio” value is -0.338.

With AASS C534, the “log2 mean competition ratio” value was -0.0396.

For AAMDC C122 (UniProt Q9H7C9), the “log2 mean competition ratio” value came to 0.267.

Take AAK1 C319: the “log2 mean competition ratio” value was -0.569.

In the case of ABHD16A C416 (UniProt O95870), the “log2 mean competition ratio” value came to 0.248.

For the target ABHD6 C102 (UniProt Q9BV23), the “log2 mean competition ratio” value was -0.259.

Consider ABCC10 C1425 (UniProt Q5T3U5), for which the “log2 mean competition ratio” value came to 0.0385.

On to ABCF2 C586 (UniProt Q9UG63), for which the “log2 mean competition ratio” value was -0.252.

Regarding AARS2 C904 (UniProt Q5JTZ9), the “log2 mean competition ratio” value was -0.197.

For ABCD1 C511 (UniProt P33897), the “log2 mean competition ratio” value is -0.0299.

With ABCC1 C1479 (UniProt P33527), the “log2 mean competition ratio” value was -0.313.

For ACACA C1396 (UniProt Q13085), the “log2 mean competition ratio” value was -0.281.

As for ABCF1 C655, the “log2 mean competition ratio” value is -0.194.

ACAP2 C10 (UniProt Q15057): the “log2 mean competition ratio” value turned out to be 0.636.

Take ACADS C151 (UniProt P16219): the “log2 mean competition ratio” value is -0.0669.

Regarding AAK1 C87, the “log2 mean competition ratio” value is -0.111.

Turning to ACACA C1297 (UniProt Q13085), the “log2 mean competition ratio” value was found to be 0.0867.

As for ABL2 C510 (UniProt P42684), the “log2 mean competition ratio” value was -0.329.

ABCD1 C39 (UniProt P33897): the “log2 mean competition ratio” value is 0.138.

Consider ABR C346 (UniProt Q12979), for which the “log2 mean competition ratio” value is -0.0781.
